Experimental data: PubChem BioAssay AID1159584 (Peter MacCallum Cancer Centre, 2016)
Shown is an unselected part of about 18,000 reagents. Further read-outs or replicates are left out here. Reagent sequences are not shown. Not given: the amount of reagent, the time to read-out.

Screen: 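Knock-downs that harm CDH1-null cells more than parental MCF10A cells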 (primary screen)
Cell system: human MCF10A breast epithelial cells, parental and CDH1-null
Knock-down reagent: siRNA against human genes
Read-out: 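ATP luminescence (CellTiter-Glo) viability per line relative to mean mock wells over all plates, and the ratio of CDH1-null to parental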
Reading the numbers: CDH1-null / parental viability ratio: higher = CDH1-null cells survive relatively better than parental; CDH1-null viability vs mock: higher = more viable CDH1-null cells
Units: CDH1-null viability vs mock in fraction of mock

LRRC55 [SID152152919] — CDH1-null / parental viability ratio: 0.83; CDH1-null viability vs mock: 0.72
MS4A14 [SID152152621] — CDH1-null / parental viability ratio: 1.62; CDH1-null viability vs mock: 0.6
SLC25A51 [SID152153775] — CDH1-null / parental viability ratio: 1.06; CDH1-null viability vs mock: 0.7
MAGEA6 [SID135623692] — CDH1-null / parental viability ratio: 1.12; CDH1-null viability vs mock: 1.27
RAX2 [SID135623097] — CDH1-null / parental viability ratio: 1.42; CDH1-null viability vs mock: 0.57
MMP15 [SID134311381] — CDH1-null / parental viability ratio: 1.25; CDH1-null viability vs mock: 0.7
GFRA3 [SID152149945] — CDH1-null / parental viability ratio: 0.74; CDH1-null viability vs mock: 0.7
OPTC [SID152152228] — CDH1-null / parental viability ratio: 0.82; CDH1-null viability vs mock: 0.66
RPH3A [SID134324068] — CDH1-null / parental viability ratio: 2.09; CDH1-null viability vs mock: 0.92
ANGPT4 [SID135621445] — CDH1-null / parental viability ratio: 1.22; CDH1-null viability vs mock: 0.66
NUP153 [SID134310852] — CDH1-null / parental viability ratio: 0.94; CDH1-null viability vs mock: 0.62
TNN [SID152151701] — CDH1-null / parental viability ratio: 0.84; CDH1-null viability vs mock: 0.62
PTPDC1 [SID134313451] — CDH1-null / parental viability ratio: 1.48; CDH1-null viability vs mock: 0.62
ZNF583 [SID134320205] — CDH1-null / parental viability ratio: 2.08; CDH1-null viability vs mock: 1

Only “CDH1-null / parental viability ratio”, for 3 of the entries above:
GFRA3 [SID152149945]	0.74
OPTC [SID152152228]	0.82
RPH3A [SID134324068]	2.09

Continued:
FLAD1 [SID134313491] — CDH1-null / parental viability ratio: 1.08; CDH1-null viability vs mock: 1.15
RASL11B [SID134318430] — CDH1-null / parental viability ratio: 0.8; CDH1-null viability vs mock: 0.7
PTCD1 [SID134324954] — CDH1-null / parental viability ratio: 1.37; CDH1-null viability vs mock: 1
PLA2G1B [SID134313721] — CDH1-null / parental viability ratio: 1.1; CDH1-null viability vs mock: 0.74
GAB3 [SID152149122] — CDH1-null / parental viability ratio: 1.15; CDH1-null viability vs mock: 0.71
SLC35F1 [SID152156721] — CDH1-null / parental viability ratio: 0.68; CDH1-null viability vs mock: 0.52
DDX49 [SID134321874] — CDH1-null / parental viability ratio: 0.95; CDH1-null viability vs mock: 0.84
GATAD2B [SID135622633] — CDH1-null / parental viability ratio: 1.27; CDH1-null viability vs mock: 0.81
FOXD1 [SID152148203] — CDH1-null / parental viability ratio: 0.95; CDH1-null viability vs mock: 0.7
COLEC12 [SID152153957] — CDH1-null / parental viability ratio: 1.09; CDH1-null viability vs mock: 0.73
PAM16 [SID134319309] — CDH1-null / parental viability ratio: 0.8; CDH1-null viability vs mock: 0.7
EIF3D [SID152154071] — CDH1-null / parental viability ratio: 1.04; CDH1-null viability vs mock: 0.5
CALHM6 [SID135625338] — CDH1-null / parental viability ratio: 1.05; CDH1-null viability vs mock: 0.63
SPECC1 [SID152149553] — CDH1-null / parental viability ratio: 1.13; CDH1-null viability vs mock: 0.93
FBXO38 [SID135623465] — CDH1-null / parental viability ratio: 0.95; CDH1-null viability vs mock: 0.76
SELENOV [SID134323113] — CDH1-null / parental viability ratio: 0.77; CDH1-null viability vs mock: 0.33
CREB3L3 [SID134319022] — CDH1-null / parental viability ratio: 0.89; CDH1-null viability vs mock: 0.78
EMG1 [SID152149732] — CDH1-null / parental viability ratio: 0.87; CDH1-null viability vs mock: 0.4
CA4 [SID134313629] — CDH1-null / parental viability ratio: 1.19; CDH1-null viability vs mock: 0.86
HSD17B11 [SID135621660] — CDH1-null / parental viability ratio: 0.84; CDH1-null viability vs mock: 0.57
RBM3 [SID152150055] — CDH1-null / parental viability ratio: 0.98; CDH1-null viability vs mock: 0.48
